Reference: paper PMC5038948, “The Role of Neutrophil Proteins on the Amyloid Beta-RAGE Axis” (PLoS ONE, 2016)
Results are given in words; binding and its absence hold for the method and conditions named. Some results given as binding are weak or reduced against the parent protein; the word gives no strength.

Protein sequences, listed by entry. Tags and fused reporters are not part of them. Lines headed by an entry give the natural chain unless they say otherwise; changes in a name come on top. Residues count along the entry.
UniProt P02769, residues 25-607: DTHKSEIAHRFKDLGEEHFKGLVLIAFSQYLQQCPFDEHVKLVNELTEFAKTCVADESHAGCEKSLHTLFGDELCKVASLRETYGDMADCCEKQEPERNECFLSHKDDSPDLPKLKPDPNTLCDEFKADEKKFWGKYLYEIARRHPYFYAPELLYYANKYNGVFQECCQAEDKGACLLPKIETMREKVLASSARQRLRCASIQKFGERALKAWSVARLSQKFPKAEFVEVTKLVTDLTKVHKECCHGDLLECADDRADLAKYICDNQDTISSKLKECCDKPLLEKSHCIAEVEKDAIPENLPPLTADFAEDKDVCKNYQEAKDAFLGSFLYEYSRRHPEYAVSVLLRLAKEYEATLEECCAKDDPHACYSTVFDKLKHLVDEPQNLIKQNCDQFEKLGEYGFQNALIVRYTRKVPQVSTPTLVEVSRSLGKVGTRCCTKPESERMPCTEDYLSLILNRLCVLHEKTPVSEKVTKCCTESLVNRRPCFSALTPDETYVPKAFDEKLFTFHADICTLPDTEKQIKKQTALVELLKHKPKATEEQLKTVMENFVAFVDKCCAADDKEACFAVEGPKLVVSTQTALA
UniProt Q15109, residues 23-342: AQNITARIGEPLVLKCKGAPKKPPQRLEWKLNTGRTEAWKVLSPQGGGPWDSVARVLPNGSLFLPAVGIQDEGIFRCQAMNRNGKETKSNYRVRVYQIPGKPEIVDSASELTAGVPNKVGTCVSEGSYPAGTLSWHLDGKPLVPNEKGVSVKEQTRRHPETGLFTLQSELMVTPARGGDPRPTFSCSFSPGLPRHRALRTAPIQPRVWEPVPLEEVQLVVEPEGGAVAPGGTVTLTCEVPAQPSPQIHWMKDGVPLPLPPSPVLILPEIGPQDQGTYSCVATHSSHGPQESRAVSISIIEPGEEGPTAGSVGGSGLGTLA

How the values were obtained:
[1] = molecular target: T1, cationic antimicrobial protein of 37kDa (CAP37) (human) (UniProt P20160); test: far-Western, overlay or dot blot; 0.5 μg Aβ1-42 and 1 μg CAP37, neutrophil elastase, cathepsin G or BSA spotted on nitrocellulose; RAGE Fc chimera […] ([…]) overnight at 4°C, pre-incubated without or with GM-0111; detected with rabbit anti-RAGE; both purified
T1 sequence: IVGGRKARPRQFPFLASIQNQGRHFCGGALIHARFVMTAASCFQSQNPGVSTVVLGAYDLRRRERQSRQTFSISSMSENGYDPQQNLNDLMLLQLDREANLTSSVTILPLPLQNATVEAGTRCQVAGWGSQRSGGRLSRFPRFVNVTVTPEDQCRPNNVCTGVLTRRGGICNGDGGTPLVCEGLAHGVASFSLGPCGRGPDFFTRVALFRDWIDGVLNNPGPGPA

[2] = molecular target: bovine serum albumin (BSA) (bovine) (UniProt P02769); test: ELISA; CAP37, neutrophil elastase, cathepsin G or Aβ1-42 (0.5 μg/well) or BSA (1000 μg/well) coated on Maxisorp plates in PBS pH 7.4; RAGE Fc chimera 0–[…] in PBST with 0.1% BSA, 37°C, 70 min; bound RAGE detected with goat anti-RAGE; BSA subtracted as background for KD; both purified
[3] = molecular target: bovine serum albumin (BSA) (bovine) (UniProt P02769); test: far-Western, overlay or dot blot; 0.5 μg Aβ1-42 and 1 μg CAP37, neutrophil elastase, cathepsin G or BSA spotted on nitrocellulose; RAGE Fc chimera […] ([…]) overnight at 4°C, pre-incubated without or with GM-0111; detected with rabbit anti-RAGE; both purified

| Substance | binding [1] | binding [2] | binding [3] |
| --- | --- | --- | --- |
| Recombinant human RAGE Fc chimera (from UniProt Q15109 23-342) (Fc fusion) | binds |  |  |
| Recombinant human RAGE Fc chimera (from UniProt Q15109 23-342) (Fc fusion; other documents disagree on this pair) |  | no binding (tested: 3.3 nM RAGE) | no binding (tested: 4.2 nM RAGE) |
